Reference: PMC9392266
Results are given in words; binding and its absence hold for the method and conditions named. Binding seen in cells or lysates may run through a third protein. Some results given as binding are weak or reduced against the parent protein; the word gives no strength. Sequences can lack the tags named with a protein.

T1: PDS5B (mouse (endogenous in mESCs)) (UniProt Q4VA53)
T1 sequence: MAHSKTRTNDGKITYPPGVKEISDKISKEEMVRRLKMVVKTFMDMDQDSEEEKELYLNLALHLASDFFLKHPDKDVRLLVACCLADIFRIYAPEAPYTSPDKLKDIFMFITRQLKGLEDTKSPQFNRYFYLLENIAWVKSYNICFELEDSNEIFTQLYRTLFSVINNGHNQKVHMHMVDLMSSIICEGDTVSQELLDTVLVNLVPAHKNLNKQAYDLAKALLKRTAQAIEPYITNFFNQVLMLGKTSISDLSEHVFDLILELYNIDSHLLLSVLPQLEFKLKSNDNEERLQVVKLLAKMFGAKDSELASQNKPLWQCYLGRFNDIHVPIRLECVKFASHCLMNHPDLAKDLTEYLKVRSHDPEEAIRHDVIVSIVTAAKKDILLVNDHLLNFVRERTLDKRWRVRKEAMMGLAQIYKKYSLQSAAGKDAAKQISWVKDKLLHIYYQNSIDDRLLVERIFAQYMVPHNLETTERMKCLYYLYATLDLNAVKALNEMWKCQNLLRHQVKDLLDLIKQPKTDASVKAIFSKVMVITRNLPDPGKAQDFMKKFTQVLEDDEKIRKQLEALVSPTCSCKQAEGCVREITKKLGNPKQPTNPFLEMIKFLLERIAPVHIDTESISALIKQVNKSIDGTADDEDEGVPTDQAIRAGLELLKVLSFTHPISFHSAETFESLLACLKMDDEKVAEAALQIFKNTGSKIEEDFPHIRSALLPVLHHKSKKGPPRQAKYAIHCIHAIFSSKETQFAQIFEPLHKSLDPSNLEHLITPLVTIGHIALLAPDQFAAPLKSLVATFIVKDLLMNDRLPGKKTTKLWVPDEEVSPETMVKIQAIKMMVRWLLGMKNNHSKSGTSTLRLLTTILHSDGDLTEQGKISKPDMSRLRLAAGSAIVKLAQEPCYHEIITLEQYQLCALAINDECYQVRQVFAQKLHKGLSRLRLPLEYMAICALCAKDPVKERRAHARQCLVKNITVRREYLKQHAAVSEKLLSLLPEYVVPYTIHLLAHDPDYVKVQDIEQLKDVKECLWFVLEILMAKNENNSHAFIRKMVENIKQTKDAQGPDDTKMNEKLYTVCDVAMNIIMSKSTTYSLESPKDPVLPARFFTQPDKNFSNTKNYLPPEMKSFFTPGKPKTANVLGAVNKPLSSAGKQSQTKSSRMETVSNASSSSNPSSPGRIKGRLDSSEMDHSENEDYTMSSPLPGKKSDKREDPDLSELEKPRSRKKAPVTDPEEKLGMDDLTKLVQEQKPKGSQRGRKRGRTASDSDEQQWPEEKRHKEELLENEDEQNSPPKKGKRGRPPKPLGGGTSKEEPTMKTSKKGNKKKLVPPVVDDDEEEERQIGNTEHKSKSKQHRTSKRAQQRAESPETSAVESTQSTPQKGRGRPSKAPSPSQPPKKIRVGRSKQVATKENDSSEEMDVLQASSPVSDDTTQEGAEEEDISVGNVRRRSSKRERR

T2: PDS5A (mouse (endogenous in mESCs)) (UniProt Q6A026)
T2 sequence: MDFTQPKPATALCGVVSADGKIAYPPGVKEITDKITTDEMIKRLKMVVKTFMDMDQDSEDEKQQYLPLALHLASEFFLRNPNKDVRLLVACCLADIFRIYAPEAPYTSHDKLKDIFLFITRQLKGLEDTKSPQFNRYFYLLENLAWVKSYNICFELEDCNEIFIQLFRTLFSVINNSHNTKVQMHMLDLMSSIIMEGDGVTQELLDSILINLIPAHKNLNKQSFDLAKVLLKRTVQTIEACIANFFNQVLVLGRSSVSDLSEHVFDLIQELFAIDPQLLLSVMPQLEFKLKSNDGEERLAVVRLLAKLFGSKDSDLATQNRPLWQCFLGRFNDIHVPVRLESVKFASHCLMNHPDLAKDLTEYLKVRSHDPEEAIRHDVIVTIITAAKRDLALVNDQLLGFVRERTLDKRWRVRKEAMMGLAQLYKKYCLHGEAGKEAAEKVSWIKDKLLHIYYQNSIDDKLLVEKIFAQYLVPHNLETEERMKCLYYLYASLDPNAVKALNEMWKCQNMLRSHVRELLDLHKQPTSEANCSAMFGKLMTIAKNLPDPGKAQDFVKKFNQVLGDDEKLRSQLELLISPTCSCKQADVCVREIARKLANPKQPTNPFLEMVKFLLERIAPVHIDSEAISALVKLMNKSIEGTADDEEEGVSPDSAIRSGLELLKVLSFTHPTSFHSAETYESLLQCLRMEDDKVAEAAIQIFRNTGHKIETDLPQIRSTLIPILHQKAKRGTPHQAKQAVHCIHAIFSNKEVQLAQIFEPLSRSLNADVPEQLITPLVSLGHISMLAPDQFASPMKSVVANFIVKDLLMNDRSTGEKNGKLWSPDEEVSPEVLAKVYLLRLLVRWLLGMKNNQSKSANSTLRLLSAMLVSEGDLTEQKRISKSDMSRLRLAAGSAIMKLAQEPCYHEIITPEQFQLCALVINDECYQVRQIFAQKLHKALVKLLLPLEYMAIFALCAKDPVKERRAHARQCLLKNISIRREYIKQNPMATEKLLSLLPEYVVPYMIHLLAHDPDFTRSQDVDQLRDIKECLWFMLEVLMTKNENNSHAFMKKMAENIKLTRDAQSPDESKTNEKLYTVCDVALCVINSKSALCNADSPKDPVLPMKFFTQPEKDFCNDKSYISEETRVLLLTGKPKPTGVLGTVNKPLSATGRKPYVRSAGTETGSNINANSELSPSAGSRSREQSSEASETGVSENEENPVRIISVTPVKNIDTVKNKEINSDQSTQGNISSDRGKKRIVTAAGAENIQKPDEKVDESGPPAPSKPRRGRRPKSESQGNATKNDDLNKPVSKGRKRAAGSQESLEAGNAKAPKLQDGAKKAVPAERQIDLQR

B1: RAD21 (protein, UniProt Q61550 1-635)
chain: MFYAHFVLSKRGPLAKIWLAAHWDKKLTKAHVFECNLESSVESIISPKVKMALRTSGHLLLGVVRIYHRKAKYLLADCNEAFIKIKMAFRPGVVDLPEENREAAYNAITLPEEFHDFDQPLPDLDDIDVAQQFSLNQSRVEEITMREEVGNISILQENDFGDFGMDDREIMREGSAFEDDDMLVSTSASNLLLEPEQSTSNLNEKMNHLEYEDQYKDDNFGEGNDGGILDDKLISNNDGGIFDDPPALSEAGVMLPEQPAHDDMDEDDNGSLGGPDSPDSVDPVEPMPTMTDQTTLVPNEEEAFALEPIDITVKETKAKRKRKLIVDSVKELDSKTIRAQLSDYSDIVTTLDLAPPTKKLMMWKETGGVEKLFFLPAQPLWNNRLLKLFTRCLTPLVPEDLRKRRKGGEADNLDEFLKEFENPEVPREEQQPQQQQPQPQRDVIDEPIIEEPSRLQDSVMEASRTTIEESAMPPPPPQGVKRKAGQIDPEPSIPPQQVEQMEIPPVELPPEEPPNICQLIPELELLPEKEKEKEKEKEEEEEEEDEDASGGDQDQEERRWNKRTQQMLHGLQRALAKTGAESISLLELCRNTNRKQAAAKFYSFLVLKKQQAIELTQEEPYSDIIATPGPRFHII
B2: STAG1 (protein, UniProt Q9D3E6 1-1258)
chain: MITSELPVLQDSTNETTAHSDAGSELEETEVKGKRKRGRPGRPPSTNKKPRKSPGEKSRIEAGIRGAGRGRANGHPQQNGDGDPVTLFEVVKLGKSAMQSVVDDWIELYKQDRDIALLDLINFFIQCSGCRGTVRIEMFRNMQNAEIIRKMTEEFDEDSGDYPLTMPGPQWKKFRSNFCEFIGVLIRQCQYSIIYDEYMMDTVISLLTGLSDSQVRAFRHTSTLAAMKLMTALVNVALNLSIHQDNTQRQYEAERNKMIGKRANERLELLLQKRKELQENQDEIENMMNSIFKGIFVHRYRDAIAEIRAICIEEIGVWMKMYSDAFLNDSYLKYVGWTLHDRQGEVRLKCLKALQSLYTNRELFPKLELFTNRFKDRIVSMTLDKEYDVAVEAIRLVTLILHGSEEALSNEDCENVYHLVYSAHRPVAVAAGEFLHKKLFSRHDPQAEEALAKRRGRNSPNGNLIRMLVLFFLESELHEHAAYLVDSLWESSQELLKDWECMTELLLEEPVQGEEAMSDRQESALIELMVCTIRQAAEAHPPVGRGTGKRVLTAKERKTQIDDRNKLTEHFIITLPMLLSKYSADAEKVANLLQIPQYFDLEIYSTGRMEKHLDALLKQIKFVVEKHVESDVLEACSKTYSILCSEEYTIQNRVDIARSQLIDEFVDRFNHSVEDLLQEGEEADDDDIYNVLSTLKRLTSFHNAHDLTKWDLFGNCYRLLKTGIEHGAMPEQIVVQALQCSHYSILWQLVKITDGSPSKEDLLVLRKTVKSFLAVCQQCLSNVNTPVKEQAFMLLCDLLMIFSHQLMTGGREGLQPLVFNPDTGLQSELLSFVMDHVFIDQDEENQSMEGDEEDEANKIEALHKRRNLLAAFSKLIIYDIVDMHAAADIFKHYMKYYNDYGDIIKETLSKTRQIDKIQCAKTLILSLQQLFNELVQEQGPNLDRTSAHVSGIKELARRFALTFGLDQIKTREAVATLHKDGIEFAFKYQNQKGQEYPPPNLAFLEVLSEFSSKLLRQDKKTVHSYLEKFLTEQMMERREDVWLPLISYRNSLVTGGEDDRMSVNSGSSSSKTSSVRSKKGRPPLHRKRVEDESLDNTWLNRTDTMIQTPGPLPTPQLTSTVLRENSRPMGEQIQEPESEHGSEPDFLHNPQMQISWLGQPKLEDLNRKDRTGMNYMKVRAGVRHAVRGLMEEDAEPIFEDVMMSSRSQLEDMNEEFEDTMVIDLPPSRNRRERAELRPDFFDSAAIIEDDSGFGMPMF
B3: STAG2 (protein, UniProt O35638 1-1231)
chain: MIAAPEIPTDFNLLQESETHFSSDTDFEDIEGKNQKQGKGKTCKKGKKGPAEKGKSGNGGGKPPSGSNRMNGHHQQNGVENMMLFEVVKMGKSAMQSVVDDWIESYKHDRDIALLDLINFFIQCSGCKGVVTAEMFRHMQNSEIIRKMTEEFDEDSGDYPLTMAGPQWKKFKSSFCEFIGVLVRQCQYSIIYDEYMMDTVISLLTGLSDSQVRAFRHTSTLAAMKLMTALVNVALNLSINMDNTQRQYEAERNKMIGKRANERLELLLQKRKELQENQDEIENMMNAIFKGVFVHRYRDAIAEIRAICIEEIGIWMKMYSDAFLNDSYLKYVGWTMHDKQGEVRLKCLTALQGLYYNKELNSKLELFTSRFKDRIVSMTLDKEYDVAVQAIKLLTLVLQSSEEVLTAEDCENVYHLVYSAHRPVAVAAGEFLYKKLFSRRDPEEDGLMKRRGRQGPNANLVKTLVFFFLESELHEHAAYLVDSMWDCATELLKDWECMNSLLLEEPLSGEEALTDRQESALIEIMLCTIRQAAECHPPVGRGTGKRVLTAKEKKTQLDDRTRITELFAVALPQLLAKYSVDAEKVTNLLQLPQYFDLEIYTTGRLEKHLDALLRQIRNIVEKHTDTDVLEACSKTYHALCNEEFTIFNRVDISRSQLIDELADKFNRLLEDFLQEGEEPDEDDAYQVLSTLKRITAFHNAHDLSKWDLFACNYKLLKTGIENGDMPEQIVIHALQCAHYVILWQLAKITESTSTKEDLLRLKKQMRVFCQICQHYLTNVNTTVKEQAFTILCDILMIFSHQIMSGGRDMLEPLVYTPDSSLQSELLSFILDHVFIEQDDDSNSADGQQEDEASKIEALHKRRNLLAAFCKLIVYTVVEMNTAADIFKQYMKYYNDYGDIIKETMSKTRQIDKIQCAKTLILSLQQLFNEMIQENGYNFDRSSSTFSGIKELARRFALTFGLDQLKTREAIAMLHKDGIEFAFKEPNPQGESHPPLNLAFLDILSEFSSKLLRQDKRTVYVYLEKFMTFQMSLRREDVWLPLMSYRNSLLAGGDDDTMSVISGMSSRGSTVRSKKSKPSTGKRKVVEGMQLALPEESSSSDSMWLSREQTLHTPVMMQTPQLTSTIMREPKRLRPEDSFMSVYPMQAEHHQTPLDYNRRGTSLMEDDEEPIVEDVMMSSEGRIEDLNEGMDFDTMDIDLPPSKNRRERTELKPDFFDPASIMDESVLGVSMF

These binders were tested against T1, PDS5B (mouse (endogenous in mESCs)) (assay: co-IP; WT mESC nuclear lysates (Benzonase-digested), 100 ug protein per IP, low stringency, native (uncrosslinked) conditions as per Active Motif Nuclear Complex Co-IP Kit; antibody on Protein G Dynabeads; western blot).

Row | Binder | binding
1 | B1 | binds
2 | B2 | binds
3 | B3 | binds

These binders were tested against T2, PDS5A (mouse (endogenous in mESCs)) in the same assay as above.

Row | Binder | binding
4 | B1 | binds
5 | B2 | binds
6 | B3 | binds

These binders were tested against T1, PDS5B (mouse (endogenous in mESCs)) (assay: co-IP; WT mESC nuclear lysates (Benzonase-digested), 100 ug protein per IP, high stringency (high salt and detergent), native (uncrosslinked) conditions as per Active Motif Nuclear Complex Co-IP Kit; antibody on Protein G Dynabeads; western blot).

Row | Binder | binding
7 | B1 | binds
8 | B2 | binds
9 | B3 | binds

What follows are binders tested against T2, PDS5A (mouse (endogenous in mESCs)) in the same assay as above.

Row | Binder | binding
10 | B1 | binds
11 | B2 | binds
12 | B3 | binds
